Test results as given in patent US12419871B2, “Biomolecules involved in Alzheimer's disease” (ELECTROPHORETICS LIMITED, priority 2015, dated 2025).

B1: P47972 (protein, UniProt P47972 1-431, looked up)
chain: MLALLAASVALAVAAGAQDSPAPGSRFVCTALPPEAVHAGCPLPAMPMQGGAQSPEEELRAAVLQLRETVVQQKETLGAQREAIRELTGKLARCEGLAGGKARGAGATGKDTMGDLPRDPGHVVEQLSRSLQTLKDRLESLEHQLRANVSNAGLPGDFREVLQQRLGELERQLLRKVAELEDEKSLLHNETSAHRQKTESTLNALLQRVTELERGNSAFKSPDAFKVSLPLRTNYLYGKIKKTLPELYAFTICLWLRSSASPGIGTPFSYAVPGQANEIVLIEWGNNPIELLINDKVAQLPLFVSDGKWHHICVTWTTRDGMWEAFQDGEKLGTGENLAPWHPIKPGGVLILGQEQDTVGGRFDATQAFVGELSQFNIWDRVLRAQEIVNIANCSTNMPGNIIPWVDNNVDVFGGASKWPVETCEERLLDL
modifications: full-length
B2: O15240 (protein, UniProt O15240 1-615, looked up)
chain: MKALRLSASALFCLLLINGLGAAPPGRPEAQPPPLSSEHKEPVAGDAVPGPKDGSAPEVRGARNSEPQDEGELFQGVDPRALAAVLLQALDRPASPPAPSGSQQGPEEEAAEALLTETVRSQTHSLPAPESPEPAAPPRPQTPENGPEASDPSEELEALASLLQELRDFSPSSAKRQQETAAAETETRTHTLTRVNLESPGPERVWRASWGEFQARVPERAPLPPPAPSQFQARMPDSGPLPETHKFGEGVSSPKTHLGEALAPLSKAYQGVAAPFPKARRPESALLGGSEAGERLLQQGLAQVEAGRRQAEATRQAAAQEERLADLASDLLLQYLLQGGARQRGLGGRGLQEAAEERESAREEEEAEQERRGGEERVGEEDEEAAEAEAEAEEAERARQNALLFAEEEDGEAGAEDKRSQEETPGHRRKEAEGTEEGGEEEDDEEMDPQTIDSLIELSTKLHLPADDVVSIIEEVEEKRKRKKNAPPEPVPPPRAAPAPTHVRSPQPPPPAPAPARDELPDWNEVLPPWDREEDEVYPPGPYHPFPNYIRPRTLQPPSALRRRHYHHALPPSRHYPGREAQARRAQEEAEAEERRLQEQEELENYIEHVLLRRP
modifications: full-length
B3: Q02818 (protein, UniProt Q02818 1-461, looked up)
chain: MPPSGPRGTLLLLPLLLLLLLRAVLAVPLERGAPNKEETPATESPDTGLYYHRYLQEVIDVLETDGHFREKLQAANAEDIKSGKLSRELDFVSHHVRTKLDELKRQEVSRLRMLLKAKMDAEQDPNVQVDHLNLLKQFEHLDPQNQHTFEARDLELLIQTATRDLAQYDAAHHEEFKRYEMLKEHERRRYLESLGEEQRKEAERKLEEQQRRHREHPKVNVPGSQAQLKEVWEELDGLDPNRFNPKTFFILHDINSDGVLDEQELEALFTKELEKVYDPKNEEDDMREMEEERLRMREHVMKNVDTNQDRLVTLEEFLASTQRKEFGDTGEGWETVEMHPAYTEEELRRFEEELAAREAELNAKAQRLSQETEALGRSQGRLEAQKRELQQAVLHMEQRKQQQQQQQGHKAPAAHPEGQLKFHPDTDDVPVPAPAGDQKEVDTSEKKLLERLPEVEVPQHL
modifications: full-length
B4: Q86U38 (protein, UniProt Q86U38 1-636, looked up)
chain: MGQGPRSPHKVGRRFPAGGKRGRGAKGSGRPLPGRKRQPWPPPDGRSEPAPDSHPHLSPEALGYFRRALSALKEAPETGEERDLMVHNIMKEVETQALALSTNRTGSEMLQELLGFSPLKPLCRVWAALRSNLRTVACHRCGVHVLQSALLQLPRLLGSAAEEEEEEEEDGKDGPTETLEELVLGLAAEVCDDFLVYCGDTHGSFVVRTLLQVLGGTILESERARPRGSQSSEAQKTPAQECKPADFEVPETFLNRLQDLSSSFLKDIAVFITDKISSFCLQVALQVLHRKLPQFCAHLCNAVIGYLSTRGSSVDGSPLLLFLRDQTSSRLLEQVLLVLEPPRLQSLFEEHLQGQLQTLAAHPIANFPLQRLLDAVTTPELLSPVFEELSPVLEAVLAQGHPGVVIALVGACRRVGAYQAKVLQLLLEAFHCAEPSSRQVACVPLFATLMAYEVYYGLTEEEGAVPAEHQVAMAAARALGDVTVLGSLLLQHLLHFSTPGLVLRSLGALTGPQLLSLAQSPAGSHVLDAILTSPSVTRKLRRRVLQNLKGQYVALACSRHGSRVLDAIWSGAALRARKEIAAELGEQNQELIRDPFGHHVARNVALTTFLKRREAWEQQQGAVAKRRRALNSILED
modifications: full-length
B5: P23515 (protein, UniProt P23515 1-440, looked up)
chain: MEYQILKMSLCLFILLFLTPGILCICPLQCICTERHRHVDCSGRNLSTLPSGLQENIIHLNLSYNHFTDLHNQLTQYTNLRTLDISNNRLESLPAHLPRSLWNMSAANNNIKLLDKSDTAYQWNLKYLDVSKNMLEKVVLIKNTLRSLEVLNLSSNKLWTVPTNMPSKLHIVDLSNNSLTQILPGTLINLTNLTHLYLHNNKFTFIPDQSFDQLFQLQEITLYNNRWSCDHKQNITYLLKWMMETKAHVIGTPCSTQISSLKEHNMYPTPSGFTSSLFTVSGMQTVDTINSLSVVTQPKVTKIPKQYRTKETTFGATLSKDTTFTSTDKAFVPYPEDTSTETINSHEAAAATLTIHLQDGMVTNTSLTSSTKSSPTPMTLSITSGMPNNFSEMPQQSTTLNLWREETTTNVKTPLPSVANAWKVNASFLLLLNVVVMLAV
modifications: full-length
B6: Q9BZF1 (protein, UniProt Q9BZF1 1-889, looked up)
chain: MEGGLADGEPDRTSLLGDSKDVLGPSTVVANSDESQLLTPGKMSQRQGKEAYPTPTKDLHQPSLSPASPHSQGFERGKEDISQNKDESSLSMSKSKSESKLYNGSEKDSSTSSKLTKKESLKVQKKNYREEKKRATKELLSTITDPSVIVMADWLKIRGTLKSWTKLWCVLKPGVLLIYKTQKNGQWVGTVLLNACEIIERPSKKDGFCFKLFHPLEQSIWAVKGPKGEAVGSITQPLPSSYLIIRATSESDGRCWMDALELALKCSSLLKRTMIREGKEHDLSVSSDSTHVTFYGLLRANNLHSGDNFQLNDSEIERQHFKDQDMYSDKSDKENDQEHDESDNEVMGKSEESDTDTSERQDDSYIEPEPVEPLKETTYTEQSHEELGEAGEASQTETVSEENKSLIWTLLKQVRPGMDLSKVVLPTFILEPRSFLDKLSDYYYHADFLSEAALEENPYFRLKKVVKWYLSGFYKKPKGLKKPYNPILGETFRCLWIHPRTNSKTFYIAEQVSHHPPISAFYVSNRKDGFCLSGSILAKSKFYGNSLSAILEGEARLTFLNRGEDYVMTMPYAHCKGILYGTMTLELGGTVNITCQKTGYSAILEFKLKPFLGSSDCVNQISGKLKLGKEVLATLEGHWDSEVFITDKKTDNSEVFWNPTPDIKQWRLIRHTVKFEEQGDFESEKLWQRVTRAINAKDQTEATQEKYVLEEAQRQAARDRKTKNEEWSCKLFELDPLTGEWHYKFADTRPWDPLNDMIQFEKDGVIQTKVKHRTPMVSVPKMKHKPTRQQKKVAKGYSSPEPDIQDSSGSEAQSVKPSTRRKKGIELGDIQSSIESIKQTQEEIKRNIMALRNHLVSSTPATDYFLQQKDYFIIFLLILLQVIINFMFK
modifications: full-length
B7: Q96HC4 (protein, UniProt Q96HC4 1-596, looked up)
chain: MSNYSVSLVGPAPWGFRLQGGKDFNMPLTISSLKDGGKAAQANVRIGDVVLSIDGINAQGMTHLEAQNKIKGCTGSLNMTLQRASAAPKPEPVPVQKGEPKEVVKPVPITSPAVSKVTSTNNMAYNKAPRPFGSVSSPKVTSIPSPSSAFTPAHATTSSHASPSPVAAVTPPLFAASGLHANANLSADQSPSALSAGKTAVNVPRQPTVTSVCSETSQELAEGQRRGSQGDSKQQNGPPRKHIVERYTEFYHVPTHSDASKKRLIEDTEDWRPRTGTTQSRSFRILAQITGTEHLKESEADNTKKANNSQEPSPQLASSVASTRSMPESLDSPTSGRPGVTSLTAAAAFKPVGSTGVIKSPSWQRPNQGVPSTGRISNSATYSGSVAPANSALGQTQPSDQDTLVQRAEHIPAGKRTPMCAHCNQVIRGPFLVALGKSWHPEEFNCAHCKNTMAYIGFVEEKGALYCELCYEKFFAPECGRCQRKILGEVISALKQTWHVSCFVCVACGKPIRNNVFHLEDGEPYCETDYYALFGTICHGCEFPIEAGDMFLEALGYTWHDTCFVCSVCCESLEGQTFFSKKDKPLCKKHAHSVNF
modifications: full-length
B8: Q9UBV8 (protein, UniProt Q9UBV8 1-284, looked up)
chain: MASYPYRQGCPGAAGQAPGAPPGSYYPGPPNSGGQYGSGLPPGGGYGGPAPGGPYGPPAGGGPYGHPNPGMFPSGTPGGPYGGAAPGGPYGQPPPSSYGAQQPGLYGQGGAPPNVDPEAYSWFQSVDSDHSGYISMKELKQALVNCNWSSFNDETCLMMINMFDKTKSGRIDVYGFSALWKFIQQWKNLFQQYDRDRSGSISYTELQQALSQMGYNLSPQFTQLLVSRYCPRSANPAMQLDRFIQVCTQLQVLTEAFREKDTAVQGNIRLSFEDFVTMTASRML
modifications: full-length
B9: Q02790 (protein, UniProt Q02790 1-459, looked up)
chain: MTAEEMKATESGAQSAPLPMEGVDISPKQDEGVLKVIKREGTGTEMPMIGDRVFVHYTGWLLDGTKFDSSLDRKDKFSFDLGKGEVIKAWDIAIATMKVGEVCHITCKPEYAYGSAGSPPKIPPNATLVFEVELFEFKGEDLTEEEDGGIIRRIQTRGEGYAKPNEGAIVEVALEGYYKDKLFDQRELRFEIGEGENLDLPYGLERAIQRMEKGEHSIVYLKPSYAFGSVGKEKFQIPPNAELKYELHLKSFEKAKESWEMNSEEKLEQSTIVKERGTVYFKEGKYKQALLQYKKIVSWLEYESSFSNEEAQKAQALRLASHLNLAMCHLKLQAFSAAIESCNKALELDSNNEKGLFRRGEAHLAVNDFELARADFQKVLQLYPNNKAAKTQLAVCQQRIRRQLAREKKLYANMFERLAEEENKAKAEASSGDHPTDTEMKEEQKSNTAGSQSQVETEA
modifications: full-length
B10: O14936 (protein, UniProt O14936 1-926, looked up)
chain: MADDDVLFEDVYELCEVIGKGPFSVVRRCINRETGQQFAVKIVDVAKFTSSPGLSTEDLKREASICHMLKHPHIVELLETYSSDGMLYMVFEFMDGADLCFEIVKRADAGFVYSEAVASHYMRQILEALRYCHDNNIIHRDVKPHCVLLASKENSAPVKLGGFGVAIQLGESGLVAGGRVGTPHFMAPEVVKREPYGKPVDVWGCGVILFILLSGCLPFYGTKERLFEGIIKGKYKMNPRQWSHISESAKDLVRRMLMLDPAERITVYEALNHPWLKERDRYAYKIHLPETVEQLRKFNARRKLKGAVLAAVSSHKFNSFYGDPPEELPDFSEDPTSSGLLAAERAVSQVLDSLEEIHALTDCSEKDLDFLHSVFQDQHLHTLLDLYDKINTKSSPQIRNPPSDAVQRAKEVLEEISCYPENNDAKELKRILTQPHFMALLQTHDVVAHEVYSDEALRVTPPPTSPYLNGDSPESANGDMDMENVTRVRLVQFQKNTDEPMGITLKMNELNHCIVARIMHGGMIHRQGTLHVGDEIREINGISVANQTVEQLQKMLREMRGSITFKIVPSYRTQSSSCERDSPSTSRQSPANGHSSTNNSVSDLPSTTQPKGRQIYVRAQFEYDPAKDDLIPCKEAGIRFRVGDIIQIISKDDHNWWQGKLENSKNGTAGLIPSPELQEWRVACIAMEKTKQEQQASCTWFGKKKKQYKDKYLAKHNAVFDQLDLVTYEEVVKLPAFKRKTLVLLGAHGVGRRHIKNTLITKHPDRFAYPIPHTTRPPKKDEENGKNYYFVSHDQMMQDISNNEYLEYGSHEDAMYGTKLETIRKIHEQGLIAILDVEPQALKVLRTAEFAPFVVFIAAPTITPGLNEDESLQRLQKESDILQRTYAHYFDLTIINNEIDETIRHLEEAVELVCTAPQWVPVSWVY
modifications: full-length

Test: TMTcalibrator quantification of regulated proteins in AD CSF versus control
Parameters: species or system human
Details: CSF of AD patient versus control; non-modified peptides of each protein summed for three control and three AD cases

Molecule | Log2 AD/Control
B1 | 1.02
B2 | 1.12
B3 | 0.87
B4 | 0.86
B5 | 0.80
B6 | 0.78
B7 | 0.75
B8 | 0.98
B9 | 0.73
B10 | 1.07
